Results: patent publication US9134325B2, “Resistance biomarkers for HDAC inhibitors” (Celgene Corporation, priority 2012, dated 2015)
At least one compound was matched to its structure with a doubt left.

How the values were obtained:
[1] = system: cell line panel; test: Cell line panel viability screen (Cell Titer-Glo), S-value; format: cell-based; conditions: S value against TSPYL5 gene expression, FIG. 3
Description: (§1) Sensitivity of cells to HDAC inhibitor treatment is expressed as their S-value (S), which is a dimensionless compound value generated by adding the values of IC50 and the growth rate (GR) at the maximum drug concentration used to determine the IC50. The term (maximum drug concentration/200) is added in the equation below to achieve equal weighting of the S-value for IC50 and GR. S=IC50+(GR+100)×(maximum drug concentration/200) See FIG. 1 for an example of an S value calculation and explanation of GR.
(§2) To determine cell growth IC50 and GR at a given drug concentration, growth was plotted against drug concentration as a percentage of the number of cells present at the beginning of the experiment. Cells were plated in 96-well plates and allowed to attach and grow overnight. The following day, the cells were treated with serial dilutions of test compound. The viable cells were measured at day 0 (24 hours after plating) and day 3 (72 hours after adding the tested compound) using Cell Titer-Glo. Growth was calculated compared to day 0.
The plot generated two key data, the IC50 value and the % growth at the highest tested compound concentration (GR). The highest concentration tested for romidepsin was 1000 nM.
The IC50s in these experiments could range from 0-1000 nM. […] Growth at the highest drug concentration tested ranged from −100 to +100. […]

[2] = system: class 1 HDACs 1 and 2; conditions: data from Bradner et al., FIG. 6; cited from earlier work
[3] = system: SKOV3 TSPYL5 KD cells; test: Cell growth assay (Cell Titer-Glo) in SKOV3 cells expressing TSPYL5 shRNA; format: cell-based; conditions: SKOV3 TSPYL5 KD versus SKOV3 NS, FIG. 7
Description: as §1, §2
The plot generated two key data, the IC50 value and the % growth at the highest tested compound concentration (GR). […]
Effect of knocking down TSPYL5 expression using shRNA on IC50, GR and S values of romidepsin treatment. […] Knockdown of TSPYL5 in SKOV3 TSPYL5 KD cells was verified using western blot and quantitative PCR. […]

## Cc1[nH]c2ccccc2c1CCNCc1ccc(/C=C/C(=O)NO)cc1 [panobinostat]
[1]
  Sensitivity of cell lines expressing high levels of TSPYL5: no cell line expressing high levels of TSPYL5 was sensitive
[2]
  Inhibition of class 1 HDACs 1 and 2: inhibit
[3]
  Effect of TSPYL5 knockdown on sensitivity of SKOV3 cells: increases sensitivity
